Laboratory results published in patent publication US4430324A (priority 1982, dated 1984).

Assay: blind taste study, tasting-panel of three judges
Conditions: 0.11 mM concentrations, approximately 5000 ppm F^-, unanimous

Compound	astringency, comparison and ranking of zinc salts
O=S(=O)([O-])c1ccc(O)cc1.O=S(=O)([O-])c1ccc(O)cc1.[Zn+2] [zinc phenolsulfonate]	ranked in descending order of astringency
O=S(=O)([O-])[O-].[Zn+2] [ZnSO4]	ranked in descending order of astringency
